Reference: the supplement of paper PMC10849652
The other results are listed elsewhere or left out.

The chains behind the UniProt entries cited, without tags or fusion partners. Where a name states a change or a piece, a line headed by the entry shows the natural chain unless it says otherwise.
UniProt Q5U5X0: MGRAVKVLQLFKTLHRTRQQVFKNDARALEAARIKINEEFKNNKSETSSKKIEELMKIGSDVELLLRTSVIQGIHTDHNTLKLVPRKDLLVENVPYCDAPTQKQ
UniProt P46821: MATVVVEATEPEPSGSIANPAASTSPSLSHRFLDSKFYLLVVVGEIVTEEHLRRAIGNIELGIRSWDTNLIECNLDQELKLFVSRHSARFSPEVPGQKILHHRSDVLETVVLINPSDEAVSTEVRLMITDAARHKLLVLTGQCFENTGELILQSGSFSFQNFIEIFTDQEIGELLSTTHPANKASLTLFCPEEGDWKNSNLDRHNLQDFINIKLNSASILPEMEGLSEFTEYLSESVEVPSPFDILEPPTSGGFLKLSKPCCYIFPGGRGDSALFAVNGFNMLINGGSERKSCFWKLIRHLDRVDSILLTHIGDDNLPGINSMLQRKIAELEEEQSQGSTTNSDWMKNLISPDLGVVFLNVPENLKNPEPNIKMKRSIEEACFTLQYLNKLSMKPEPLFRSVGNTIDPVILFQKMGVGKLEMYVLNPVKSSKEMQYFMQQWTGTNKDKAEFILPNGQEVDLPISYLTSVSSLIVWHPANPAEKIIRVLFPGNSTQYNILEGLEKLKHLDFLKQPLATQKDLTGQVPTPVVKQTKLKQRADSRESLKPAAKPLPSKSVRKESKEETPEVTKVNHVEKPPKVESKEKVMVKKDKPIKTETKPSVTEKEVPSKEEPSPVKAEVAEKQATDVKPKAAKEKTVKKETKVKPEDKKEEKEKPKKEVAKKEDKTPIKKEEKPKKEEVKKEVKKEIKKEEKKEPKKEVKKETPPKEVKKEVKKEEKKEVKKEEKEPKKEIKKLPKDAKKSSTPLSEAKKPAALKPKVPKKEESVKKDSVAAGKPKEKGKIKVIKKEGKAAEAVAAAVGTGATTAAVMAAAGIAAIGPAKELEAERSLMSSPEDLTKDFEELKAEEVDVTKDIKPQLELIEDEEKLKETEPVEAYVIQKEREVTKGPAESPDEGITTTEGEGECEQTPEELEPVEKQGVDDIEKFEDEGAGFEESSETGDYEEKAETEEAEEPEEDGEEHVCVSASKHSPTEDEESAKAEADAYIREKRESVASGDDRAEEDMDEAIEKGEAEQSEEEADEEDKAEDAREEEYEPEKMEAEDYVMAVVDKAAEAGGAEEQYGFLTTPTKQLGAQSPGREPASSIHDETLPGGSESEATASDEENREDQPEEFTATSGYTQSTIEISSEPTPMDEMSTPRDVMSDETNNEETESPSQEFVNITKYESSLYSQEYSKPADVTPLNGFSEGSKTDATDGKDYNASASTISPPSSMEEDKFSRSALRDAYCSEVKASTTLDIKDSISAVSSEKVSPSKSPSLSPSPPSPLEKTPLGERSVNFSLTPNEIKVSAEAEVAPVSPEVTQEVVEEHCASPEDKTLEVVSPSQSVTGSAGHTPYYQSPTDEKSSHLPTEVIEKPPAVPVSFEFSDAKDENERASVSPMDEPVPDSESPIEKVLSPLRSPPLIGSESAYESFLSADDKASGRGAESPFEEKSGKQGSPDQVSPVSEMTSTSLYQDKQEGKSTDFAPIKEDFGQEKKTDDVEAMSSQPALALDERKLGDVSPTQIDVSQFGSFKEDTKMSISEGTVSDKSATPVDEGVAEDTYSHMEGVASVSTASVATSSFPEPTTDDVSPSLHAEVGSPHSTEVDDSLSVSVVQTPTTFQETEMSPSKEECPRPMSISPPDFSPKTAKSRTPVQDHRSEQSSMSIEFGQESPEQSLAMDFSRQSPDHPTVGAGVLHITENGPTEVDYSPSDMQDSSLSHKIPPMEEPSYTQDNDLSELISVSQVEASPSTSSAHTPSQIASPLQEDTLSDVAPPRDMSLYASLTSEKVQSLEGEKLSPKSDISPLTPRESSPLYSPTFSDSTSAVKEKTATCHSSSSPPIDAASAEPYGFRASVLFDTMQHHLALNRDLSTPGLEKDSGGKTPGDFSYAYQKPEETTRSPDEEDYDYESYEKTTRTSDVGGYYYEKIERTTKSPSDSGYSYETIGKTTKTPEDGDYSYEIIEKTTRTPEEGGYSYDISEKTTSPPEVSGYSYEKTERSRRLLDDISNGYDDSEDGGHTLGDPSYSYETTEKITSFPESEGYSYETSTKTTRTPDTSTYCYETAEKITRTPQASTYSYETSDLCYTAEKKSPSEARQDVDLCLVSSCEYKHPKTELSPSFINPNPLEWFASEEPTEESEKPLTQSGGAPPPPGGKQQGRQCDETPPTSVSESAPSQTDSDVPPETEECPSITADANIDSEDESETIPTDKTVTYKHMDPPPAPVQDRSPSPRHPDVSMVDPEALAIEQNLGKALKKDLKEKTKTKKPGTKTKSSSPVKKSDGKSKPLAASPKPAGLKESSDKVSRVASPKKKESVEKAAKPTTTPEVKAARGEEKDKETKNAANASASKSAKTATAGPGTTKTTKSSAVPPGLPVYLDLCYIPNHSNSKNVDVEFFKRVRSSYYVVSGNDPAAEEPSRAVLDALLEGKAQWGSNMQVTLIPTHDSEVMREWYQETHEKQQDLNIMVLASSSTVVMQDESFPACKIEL
UniProt Q9H0U3: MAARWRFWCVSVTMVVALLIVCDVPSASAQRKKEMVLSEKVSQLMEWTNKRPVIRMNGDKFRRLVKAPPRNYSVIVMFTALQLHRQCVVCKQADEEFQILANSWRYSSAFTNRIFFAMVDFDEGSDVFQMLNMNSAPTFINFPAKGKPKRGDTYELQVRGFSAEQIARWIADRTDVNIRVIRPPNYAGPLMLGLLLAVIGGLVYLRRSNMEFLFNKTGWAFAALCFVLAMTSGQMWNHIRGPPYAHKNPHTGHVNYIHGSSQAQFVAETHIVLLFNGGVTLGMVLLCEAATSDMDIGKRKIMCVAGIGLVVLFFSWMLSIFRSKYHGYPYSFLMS
UniProt P78559: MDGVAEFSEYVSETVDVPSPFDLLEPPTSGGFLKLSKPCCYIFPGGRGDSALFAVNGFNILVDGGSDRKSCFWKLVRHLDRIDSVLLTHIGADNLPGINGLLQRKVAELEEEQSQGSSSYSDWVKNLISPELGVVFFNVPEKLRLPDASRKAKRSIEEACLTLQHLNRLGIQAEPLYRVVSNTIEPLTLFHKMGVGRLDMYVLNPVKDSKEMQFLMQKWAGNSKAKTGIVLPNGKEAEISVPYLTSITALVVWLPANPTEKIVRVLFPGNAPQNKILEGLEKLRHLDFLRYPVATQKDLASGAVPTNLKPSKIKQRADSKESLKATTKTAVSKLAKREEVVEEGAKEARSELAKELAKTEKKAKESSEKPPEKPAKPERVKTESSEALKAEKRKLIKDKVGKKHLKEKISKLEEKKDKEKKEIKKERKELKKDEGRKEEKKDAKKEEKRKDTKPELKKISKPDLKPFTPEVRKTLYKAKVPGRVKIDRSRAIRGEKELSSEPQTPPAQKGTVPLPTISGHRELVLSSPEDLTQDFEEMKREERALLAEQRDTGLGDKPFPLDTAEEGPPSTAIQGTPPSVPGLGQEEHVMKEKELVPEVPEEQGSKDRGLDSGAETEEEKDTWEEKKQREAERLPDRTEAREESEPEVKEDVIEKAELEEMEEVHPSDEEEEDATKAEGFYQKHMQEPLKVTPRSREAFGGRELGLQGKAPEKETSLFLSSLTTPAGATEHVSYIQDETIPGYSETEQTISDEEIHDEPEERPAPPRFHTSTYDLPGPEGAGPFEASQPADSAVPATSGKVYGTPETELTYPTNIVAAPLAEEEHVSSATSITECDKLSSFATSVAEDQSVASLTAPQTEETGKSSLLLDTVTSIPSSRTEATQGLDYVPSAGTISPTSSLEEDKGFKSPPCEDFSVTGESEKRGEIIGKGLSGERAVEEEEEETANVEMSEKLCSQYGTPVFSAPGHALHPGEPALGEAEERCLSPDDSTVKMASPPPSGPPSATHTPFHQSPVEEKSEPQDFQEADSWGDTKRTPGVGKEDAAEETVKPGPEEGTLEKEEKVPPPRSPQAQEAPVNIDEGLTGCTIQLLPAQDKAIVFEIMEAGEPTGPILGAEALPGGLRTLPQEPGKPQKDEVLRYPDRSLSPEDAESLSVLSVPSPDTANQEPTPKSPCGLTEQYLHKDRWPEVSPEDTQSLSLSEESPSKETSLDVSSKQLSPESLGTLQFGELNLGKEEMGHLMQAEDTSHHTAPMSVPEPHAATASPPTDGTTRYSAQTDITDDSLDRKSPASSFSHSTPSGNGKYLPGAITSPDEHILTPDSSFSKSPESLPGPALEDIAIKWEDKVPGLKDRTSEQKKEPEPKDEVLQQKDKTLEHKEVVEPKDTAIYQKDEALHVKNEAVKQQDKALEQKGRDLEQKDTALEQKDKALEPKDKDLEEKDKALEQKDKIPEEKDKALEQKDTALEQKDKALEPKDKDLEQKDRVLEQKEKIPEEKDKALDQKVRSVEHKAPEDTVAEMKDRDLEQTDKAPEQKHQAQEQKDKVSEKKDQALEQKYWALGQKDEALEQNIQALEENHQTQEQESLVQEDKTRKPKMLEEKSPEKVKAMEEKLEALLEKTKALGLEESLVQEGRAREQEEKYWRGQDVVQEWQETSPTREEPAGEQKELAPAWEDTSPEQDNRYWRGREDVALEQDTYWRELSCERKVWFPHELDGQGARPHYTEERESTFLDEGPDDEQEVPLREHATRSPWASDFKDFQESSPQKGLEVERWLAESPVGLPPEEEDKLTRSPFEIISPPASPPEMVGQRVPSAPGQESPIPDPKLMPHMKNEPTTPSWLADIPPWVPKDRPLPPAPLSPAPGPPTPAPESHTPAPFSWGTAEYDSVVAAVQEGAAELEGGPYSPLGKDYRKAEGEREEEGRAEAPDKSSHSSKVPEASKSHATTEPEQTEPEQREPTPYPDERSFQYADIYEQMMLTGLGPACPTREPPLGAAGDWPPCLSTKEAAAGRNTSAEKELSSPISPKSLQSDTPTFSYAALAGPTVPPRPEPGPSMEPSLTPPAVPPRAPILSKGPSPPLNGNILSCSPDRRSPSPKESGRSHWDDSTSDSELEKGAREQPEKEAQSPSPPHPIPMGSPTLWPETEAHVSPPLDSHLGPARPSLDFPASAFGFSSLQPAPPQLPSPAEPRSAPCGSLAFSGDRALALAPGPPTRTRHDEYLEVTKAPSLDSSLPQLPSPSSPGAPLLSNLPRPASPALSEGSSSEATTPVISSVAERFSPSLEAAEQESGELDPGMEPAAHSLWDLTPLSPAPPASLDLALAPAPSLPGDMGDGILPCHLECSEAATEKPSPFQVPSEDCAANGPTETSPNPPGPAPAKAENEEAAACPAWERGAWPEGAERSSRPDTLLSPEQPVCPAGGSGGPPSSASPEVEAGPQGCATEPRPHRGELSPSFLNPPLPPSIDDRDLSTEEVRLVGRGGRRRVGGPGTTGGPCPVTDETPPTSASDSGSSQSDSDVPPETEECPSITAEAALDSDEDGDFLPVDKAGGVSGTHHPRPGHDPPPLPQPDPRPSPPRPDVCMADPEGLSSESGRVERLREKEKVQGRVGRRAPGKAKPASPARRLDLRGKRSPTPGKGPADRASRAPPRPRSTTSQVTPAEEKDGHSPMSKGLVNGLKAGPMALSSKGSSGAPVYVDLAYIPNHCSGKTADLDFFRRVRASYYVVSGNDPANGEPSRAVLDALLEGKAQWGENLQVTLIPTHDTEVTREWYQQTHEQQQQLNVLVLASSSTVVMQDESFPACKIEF
UniProt O95777: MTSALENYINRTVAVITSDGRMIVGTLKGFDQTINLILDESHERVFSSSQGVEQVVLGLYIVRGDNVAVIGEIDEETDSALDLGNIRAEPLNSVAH
UniProt Q16659, whole entry, looked up: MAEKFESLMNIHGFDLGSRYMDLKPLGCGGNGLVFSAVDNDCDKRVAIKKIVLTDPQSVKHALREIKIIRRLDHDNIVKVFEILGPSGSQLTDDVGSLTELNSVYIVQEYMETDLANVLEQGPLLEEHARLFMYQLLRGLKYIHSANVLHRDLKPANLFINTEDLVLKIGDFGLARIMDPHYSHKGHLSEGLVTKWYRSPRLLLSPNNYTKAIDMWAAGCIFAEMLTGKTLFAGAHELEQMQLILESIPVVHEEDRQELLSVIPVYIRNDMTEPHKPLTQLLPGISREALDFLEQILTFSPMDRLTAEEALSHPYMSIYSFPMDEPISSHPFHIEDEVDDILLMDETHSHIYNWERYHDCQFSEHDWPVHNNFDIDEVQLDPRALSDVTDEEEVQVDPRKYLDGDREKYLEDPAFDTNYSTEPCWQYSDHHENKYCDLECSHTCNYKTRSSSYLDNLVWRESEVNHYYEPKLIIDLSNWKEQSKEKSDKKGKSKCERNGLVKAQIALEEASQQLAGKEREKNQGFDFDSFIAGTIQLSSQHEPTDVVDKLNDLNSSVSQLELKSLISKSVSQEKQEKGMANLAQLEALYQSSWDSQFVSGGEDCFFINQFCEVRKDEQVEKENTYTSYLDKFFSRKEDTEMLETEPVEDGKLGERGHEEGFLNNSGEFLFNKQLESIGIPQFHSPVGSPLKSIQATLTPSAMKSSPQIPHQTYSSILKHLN

Key:
Assay in all cases: log2 fold change, soluble protein after heating vs DMSO (PISA); higher = thermal stabilisation; K562 cells, 10 uM, 30 min; active = over 0.2 and 3.5 SD of the protein, either way, in both replicates (recomputed)
[1] = compound: COC1=CC=C(C=C1)CN2C=CC3=C2C=C(C=C3)C(=O)NO
Procedure, shortened: (§1)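 K562 cells at 2×10^6 cells/mL were given 10 μM compound for 30 min. Aliquots then went through 3 min of heating across 48°C-58°C, were pooled, and were extracted in PBS with 0.5% NP-40 at 4°C, and the supernatant after 21,000xg for 90 min was quantified by TMTpro 16plex LC-MS/MS with channel sums equalised. Thermal stability relative to control samples, from duplicates, is given as log2 fold change.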

filanesib = compound: CON(C)C(=O)N1N=C(c2cc(F)ccc2F)S[C@@]1(CCCN)c1ccccc1 [filanesib]
Procedure, shortened: as §1

zotarolimus = compound: CO[C@H]1C[C@@H]2CC[C@@H](C)[C@@](O)(O2)C(=O)C(=O)N2CCCC[C@H]2C(=O)O[C@H]([C@H](C)C[C@@H]2CC[C@H](n3cnnn3)[C@H](OC)C2)CC(=O)[C@H](C)/C=C(\C)[C@@H](O)[C@@H](OC)C(=O)[C@H](C)C[C@H](C)/C=C/C=C/C=C/1C [zotarolimus]
Procedure, shortened: as §1

idasanutlin = compound: COc1cc(C(=O)O)ccc1NC(=O)[C@@H]1N[C@@H](CC(C)(C)C)[C@](C#N)(c2ccc(Cl)cc2F)[C@H]1c1cccc(Cl)c1F [idasanutlin]
Procedure, shortened: as §1

alisertib = compound: COc1cc(Nc2ncc3c(n2)-c2ccc(Cl)cc2C(c2c(F)cccc2OC)=NC3)ccc1C(=O)O [alisertib]
Procedure, shortened: as §1

[2] = compound: COc1cc2nc(-c3cc(F)ccc3O)nc(N[C@@H]3CNC[C@H]3C(C)(C)O)c2cc1OC
Procedure, shortened: as §1

gefitinib = compound: COc1cc2ncnc(Nc3ccc(F)c(Cl)c3)c2cc1OCCCN1CCOCC1 [gefitinib]
Procedure, shortened: as §1

[3] = compound: COc1cccc2cc(-c3nc([C@H]4CC[C@H](C(=O)O)CC4)n4ncnc(N)c34)[nH]c12
Procedure, shortened: as §1

lapatinib = compound: CS(=O)(=O)CCNCc1ccc(-c2ccc3ncnc(Nc4ccc(OCc5cccc(F)c5)c(Cl)c4)c3c2)o1 [lapatinib]
Procedure, shortened: as §1

pictilisib = compound: CS(=O)(=O)N1CCN(Cc2cc3nc(-c4cccc5[nH]ncc45)nc(N4CCOCC4)c3s2)CC1 [pictilisib]
Procedure, shortened: as §1

[4] = compound: CS(=O)(=O)c1ccc(-c2cnc(N)c(C(=O)Nc3ccccc3)n2)cc1
Procedure, shortened: as §1

crizotinib = compound: C[C@@H](Oc1cc(-c2cnn(C3CCNCC3)c2)cnc1N)c1c(Cl)ccc(F)c1Cl [crizotinib]
Procedure, shortened: as §1

[5] = compound: C[C@@H]1COCCN1C2=NC(=NC(=C2)C3(CC3)S(=O)(=O)C)C4=C5C=CNC5=CC=C4
Procedure, shortened: as §1

[6] = compound: C[C@H](C1=CC=C(C=C1)C(=O)NC2=C3C=CNC3=NC=C2)N
Procedure, shortened: as §1

duvelisib = compound: C[C@H](Nc1ncnc2nc[nH]c12)c1cc2cccc(Cl)c2c(=O)n1-c1ccccc1 [duvelisib]
Procedure, shortened: as §1

gandotinib = compound: Cc1cc(Nc2cc(CN3CCOCC3)c3nc(C)c(Cc4ccc(Cl)cc4F)n3n2)n[nH]1 [gandotinib]
Procedure, shortened: as §1

tozasertib = compound: Cc1cc(Nc2cc(N3CCN(C)CC3)nc(Sc3ccc(NC(=O)C4CC4)cc3)n2)n[nH]1 [tozasertib]
Procedure, shortened: as §1

[7] = compound: Cc1cc(SCc2sc(-c3ccc(C(F)(F)F)cc3)nc2C)ccc1OCC(=O)O
Procedure, shortened: as §1

doramapimod = compound: Cc1ccc(-n2nc(C(C)(C)C)cc2NC(=O)Nc2ccc(OCCN3CCOCC3)c3ccccc23)cc1 [doramapimod]
Procedure, shortened: as §1

ispinesib = compound: Cc1ccc(C(=O)N(CCCN)[C@@H](c2nc3cc(Cl)ccc3c(=O)n2Cc2ccccc2)C(C)C)cc1 [ispinesib]
Procedure, shortened: as §1

Measured: log2 fold change

LRSAM1 (UniProt Q6UWE0)
inactive: [1] 0.024 | filanesib -0.058 | zotarolimus 0.004 | idasanutlin -0.007 | alisertib -0.018 | [2] 0.002 | gefitinib 0.009 | [3] -0.011 | lapatinib 0.01 | pictilisib 0.045 | [4] 0.055 | crizotinib -0.012 | [5] 0.077 | [6] -0.04 | duvelisib 0.023 | gandotinib -0.045 | tozasertib 0 | [7] 0.049 | doramapimod 0.06 | ispinesib -0.017

MACF1 (UniProt H3BQK9)
inactive: [1] -0.095 | filanesib 0.149 | zotarolimus 0.115 | idasanutlin 0.026 | alisertib -0.237 | [2] -0.028 | gefitinib 0.099 | [3] -0.248 | lapatinib 0.089 | pictilisib -0.005 | [4] -0.087 | crizotinib -0.028 | [5] 0.085 | [6] 0.155 | duvelisib 0.244 | gandotinib -0.041 | tozasertib 0.005 | [7] 0.082 | doramapimod 0.068 | ispinesib -0.142

LYRM7 (UniProt Q5U5X0)
inactive: [1] -0.027 | filanesib -0.075 | zotarolimus 0.029 | idasanutlin -0.077 | alisertib -0.094 | [2] -0.066 | gefitinib -0.051 | [3] 0.017 | lapatinib -0.061 | pictilisib 0.053 | [4] 0 | crizotinib -0.017 | [5] 0.07 | [6] -0.041 | duvelisib 0.027 | gandotinib -0.056 | tozasertib 0.046 | [7] 0.007 | doramapimod -0.018 | ispinesib 0.084

LRRC8A (UniProt Q8IWT6)
inactive: [1] -0.061 | filanesib 0.243 | zotarolimus -0.019 | idasanutlin 0.054 | alisertib -0.196 | [2] 0.021 | gefitinib -0.065 | [3] -0.034 | lapatinib 0.005 | pictilisib -0.052 | [4] 0.006 | crizotinib -0.016 | [5] -0.185 | [6] 0.125 | duvelisib -0.066 | gandotinib 0.088 | tozasertib -0.034 | [7] 0.056 | doramapimod 0.188 | ispinesib -0.085

LZTFL1 (UniProt Q9NQ48)
inactive: [1] -0.019 | filanesib -0.039 | zotarolimus 0.017 | idasanutlin -0.06 | alisertib -0.01 | [2] 0.035 | gefitinib -0.004 | [3] 0.017 | lapatinib 0.034 | pictilisib -0.021 | [4] 0 | crizotinib -0.015 | [5] 0.032 | [6] -0.086 | duvelisib 0.034 | gandotinib -0.074 | tozasertib -0.027 | [7] -0.022 | doramapimod 0.021 | ispinesib 0.031

MAP1B (UniProt P46821)
inactive: [1] -0.02 | filanesib 0.042 | zotarolimus -0.006 | idasanutlin 0.053 | alisertib -0.036 | [2] -0.026 | gefitinib 0.009 | [3] -0.01 | lapatinib 0.004 | pictilisib 0 | [4] 0.024 | crizotinib 0.028 | [5] -0.067 | [6] 0.027 | duvelisib -0.022 | gandotinib 0.042 | tozasertib -0.002 | [7] -0.05 | doramapimod 0.008 | ispinesib 0.016

MARCHF6 (UniProt O60337)
inactive: [1] -0.066 | filanesib -0.264 | zotarolimus 0.034 | idasanutlin 0.087 | alisertib -0.062 | [2] -0.133 | gefitinib -0.129 | [3] 0.084 | lapatinib 0.142 | pictilisib 0.025 | [4] -0.057 | crizotinib -0.104 | [5] -0.108 | [6] -0.104 | duvelisib 0.065 | gandotinib -0.158 | tozasertib 0.014 | [7] 0.023 | doramapimod 0.001 | ispinesib -0.095

MAGT1 (UniProt Q9H0U3)
inactive: [1] -0.087 | filanesib 0.028 | zotarolimus 0.011 | idasanutlin 0.007 | alisertib -0.026 | [2] -0.003 | gefitinib 0.044 | [3] -0.007 | lapatinib 0.087 | pictilisib -0.034 | [4] 0.021 | crizotinib 0.029 | [5] -0.013 | [6] 0.093 | duvelisib -0.025 | gandotinib 0.033 | tozasertib 0.029 | [7] 0.011 | doramapimod 0.029 | ispinesib -0.017

MACO1 (UniProt Q8N5G2)
inactive: [1] -0.028 | filanesib 0.064 | zotarolimus -0.04 | idasanutlin 0.047 | alisertib -0.01 | [2] -0.071 | gefitinib 0.027 | [3] 0.01 | lapatinib 0.029 | pictilisib -0.04 | [4] 0.002 | crizotinib -0.004 | [5] -0.049 | [6] 0.022 | duvelisib 0.033 | gandotinib -0.071 | tozasertib -0.029 | [7] 0.008 | doramapimod 0.037 | ispinesib -0.154

Copied from above (2 entries):
MARCHF6 (UniProt O60337)
inactive: [1] -0.066 | filanesib -0.264 | zotarolimus 0.034 | idasanutlin 0.087 | alisertib -0.062 | [2] -0.133 | gefitinib -0.129 | [3] 0.084 | lapatinib 0.142 | pictilisib 0.025 | [4] -0.057 | crizotinib -0.104 | [5] -0.108 | [6] -0.104 | duvelisib 0.065 | gandotinib -0.158 | tozasertib 0.014 | [7] 0.023 | doramapimod 0.001 | ispinesib -0.095

MAGT1 (UniProt Q9H0U3)
inactive: [1] -0.087 | filanesib 0.028 | zotarolimus 0.011 | idasanutlin 0.007 | alisertib -0.026 | [2] -0.003 | gefitinib 0.044 | [3] -0.007 | lapatinib 0.087 | pictilisib -0.034 | [4] 0.021 | crizotinib 0.029 | [5] -0.013 | [6] 0.093 | duvelisib -0.025 | gandotinib 0.033 | tozasertib 0.029 | [7] 0.011 | doramapimod 0.029 | ispinesib -0.017

(continued)

MAN2A1 (UniProt Q16706)
inactive: [1] 0.027 | filanesib -0.016 | zotarolimus -0.01 | idasanutlin 0.058 | alisertib -0.023 | [2] 0.044 | gefitinib 0.041 | [3] 0.019 | lapatinib 0.002 | pictilisib -0.074 | [4] 0.076 | crizotinib 0.021 | [5] 0.011 | [6] 0.004 | duvelisib 0.023 | gandotinib -0.01 | tozasertib 0.003 | [7] -0.027 | doramapimod -0.016 | ispinesib 0.032

MANEA (UniProt Q5SRI9)
inactive: [1] -0.019 | filanesib -0.04 | zotarolimus 0.053 | idasanutlin 0.053 | alisertib -0.06 | [2] -0.037 | gefitinib 0.033 | [3] 0.064 | lapatinib -0.011 | pictilisib -0.013 | [4] 0.028 | crizotinib 0.044 | [5] 0.191 | [6] 0.007 | duvelisib 0.013 | gandotinib -0.114 | tozasertib -0.027 | [7] 0.113 | doramapimod -0.175 | ispinesib 0.024

MAP1A isoform 2 (UniProt P78559)
inactive: [1] 0.046 | filanesib 0.108 | zotarolimus 0.03 | idasanutlin 0.099 | alisertib -0.085 | [2] -0.032 | gefitinib -0.034 | [3] -0.132 | lapatinib 0.138 | pictilisib 0.017 | [4] 0.052 | crizotinib -0.038 | [5] -0.152 | [6] 0.257 | duvelisib -0.102 | gandotinib 0.064 | tozasertib 0.024 | [7] 0.035 | doramapimod 0.184 | ispinesib -0.118

LSM8 (UniProt O95777)
inactive: [1] -0.065 | filanesib -0.012 | zotarolimus -0.008 | idasanutlin -0.031 | alisertib -0.023 | [2] 0.025 | gefitinib -0.013 | [3] 0.051 | lapatinib -0.008 | pictilisib 0.022 | [4] -0.031 | crizotinib 0.061 | [5] 0.088 | [6] -0.02 | duvelisib 0.084 | gandotinib 0.05 | tozasertib -0.013 | [7] -0.076 | doramapimod -0.017 | ispinesib 0.035

MAPK6 (UniProt Q16659)
inactive: [1] 0.176 | filanesib -0.013 | zotarolimus -0.009 | idasanutlin 0.188 | alisertib -0.023 | [2] 0.044 | gefitinib 0.019 | [3] 0.196 | lapatinib 0.028 | pictilisib -0.02 | [4] 0.124 | crizotinib 0.052 | [5] 0.017 | [6] 0.079 | duvelisib -0.013 | gandotinib 0.156 | tozasertib 0.111 | [7] -0.155 | doramapimod -0.044

MAGEB2 (UniProt O15479)
inactive: [1] -0.119 | filanesib 0.368 | zotarolimus -0.094 | idasanutlin 0.151 | alisertib -0.105 | [2] -0.076 | gefitinib -0.071 | [3] 0.216 | lapatinib 0.167 | pictilisib -0.082 | [4] -0.101 | crizotinib 0.008 | [5] -0.255 | [6] 0.353 | duvelisib -0.249 | gandotinib 0.103 | tozasertib -0.008 | [7] 0.118 | doramapimod 0.121 | ispinesib -0.239
